Reference: ChEMBL document CHEMBL3046102, “Antibacterial and antifungal activities of some trimethoprim salts” (2012)
≈ marks a conversion by molar mass, not a printed value.

Tested on: Escherichia coli
Experiment: microbe, parasite or virus in culture
Format: functional
Conditions: ATCC 35218

## O=C(N[C@H](CO)[C@H](O)c1ccc([N+](=O)[O-])cc1)C(Cl)Cl [CHLORAMPHENICOL]
  MIC: 50 µg/mL (≈ 155 µM)
